This is an account of results in PubChem BioAssay AID256 (DTP/NCI, 2004).

The test system of this test is CD2F1 mice, L1210 leukemia ip, survival T/C. Description: NCI In Vivo Anticancer Drug Screen. Data for tumor model L1210 Leukemia (intraperitoneal) in CD2F1 (CDF1) mice. The conditions noted are these: higher T/C = longer survival. In short, it runs like this: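 Vehicle-treated tumor-bearing mice served as controls (C) for compound-treated mice (T). Reported figure is T divided by C.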

[1] abbreviates: T/C endpoint: mean survival time, dose: 200.0 mg/kg/injection, schedule: Q01DX009 (ip), vehicle: Klucel (hydroxypropylcellulose) (HPC).
[2] abbreviates: T/C endpoint: mean survival time, dose: 200.0 mg/kg/injection, schedule: Q04DX003 (ip), vehicle: saline with Tween-80.
Where [3] appears, read: T/C endpoint: mean survival time, dose: 400.0 mg/kg/injection, schedule: Q04DX003 (ip), vehicle: saline with Tween-80.
The mark [4] stands for this setting: T/C endpoint: mean survival time, dose: 100.0 mg/kg/injection, schedule: Q04DX003 (ip), vehicle: saline with Tween-80.
Setting [5] is: T/C endpoint: mean survival time, dose: 10.0 mg/kg/injection, schedule: Q01DX009 (ip), vehicle: other.

The list shows only some results of the screen, not a fair sample: it is rich in T/C values a quarter to a half above the control, in often repeated tests (any T/C) and in doses without a T/C. Other doses and runs of a compound stand elsewhere. T/C: endpoint of the treated group in % of that of the vehicle group. Some entries give survivors of the animals treated and no T/C: the source holds a T/C of zero for them, seemingly a mark for toxic or unscored doses. Some survivor counts are full or nearly so, which does not show that the dose was tolerated: survival well below the control is almost never listed, so the zero probably covers shortened survival too. Counts of survivors are from the toxicity check (mostly the fifth day) where no day follows; animals may have died later. Schedule codes are those of the source, read here as Q, the interval in days (D) or hours (H), X, the number of doses. Some entries were tested several times; the values are given in rising order. Where survival is the endpoint, this PubChem deposit counts one and a half times the control or more as active, and values a quarter to a half above the control carry no call in these data; other NCI protocols may use other cut-offs. Brackets with × count equal records among those shown. Some T/C values carry the count of animals alive at the toxicity check (mostly the fifth day); where none is given, no animal had died by that day.

Take `Cc1ccc(S(=O)(=O)N/N=C/c2ccccc2Cl)cc1`: the survivor count is given as 3 of 6 under setting [1] and 0 of 6 (T/C endpoint: mean survival time, dose: 400.0 mg/kg/injection, schedule: Q01DX009 (ip), vehicle: Klucel (hydroxypropylcellulose) (HPC)).

For the compound `CN(C)CCCNC/C=C\CNCCCN(C)C`, the survivor count (T/C endpoint: mean survival time, dose: 400.0 mg/kg/injection, schedule: Q04DX003 (ip), vehicle: saline) was 4 of 6.

On to `CC[P+]1(c2ccccc2)CCCc2ccc3ccccc3c21` (stereo not drawn), for which the survivor count (T/C endpoint: mean survival time, dose: 50.0 mg/kg/injection, schedule: Q04DX003 (ip), vehicle: saline) is on record as 0 of 6.

Take `CNC(C)COc1ccccc1` (stereo not drawn): the survivor count under setting [2] was 0 of 6 and the survivor count under setting [3] is given as 0 of 6.

Take `Cc1ccc(NCC2(/N=C/c3ccccc3)OC(CO)C(O)C2O)cc1` (stereo not drawn): the T/C was 125 % of control (T/C endpoint: mean survival time, dose: 177.0 mg/kg/injection, schedule: Q01DX009 (ip), vehicle: Klucel (hydroxypropylcellulose) (HPC)); 130 % of control (T/C endpoint: mean survival time, dose: 266.0 mg/kg/injection, schedule: Q01DX009 (ip), vehicle: saline with Tween-80); 131 % of control [5 of 6 alive] (T/C endpoint: mean survival time, dose: 400.0 mg/kg/injection, schedule: Q01DX009 (ip), vehicle: saline with Tween-80). The survivor count (T/C endpoint: mean survival time, dose: 600.0 mg/kg/injection, schedule: Q01DX009 (ip), vehicle: Klucel (hydroxypropylcellulose) (HPC)) was 4 of 6 and 6 of 6; the survivor count (T/C endpoint: mean survival time, dose: 600.0 mg/kg/injection, schedule: Q01DX009 (ip), vehicle: saline with Tween-80) was 4 of 6.

Take `C1=[N+](c2ccccc2)CCN1c1ccccc1`: for the setting “T/C endpoint: mean survival time, dose: 300.0 mg/kg/injection, schedule: Q01DX001 (ip), vehicle: saline”, the survivor count is 0 of 6.

In the case of `CCC1=CC(C)(C)CC(C)=C1` (tested in a mixture with another compound), for the setting “T/C endpoint: mean survival time, dose: 200.0 mg/kg/injection, schedule: Q01DX009 (ip), vehicle: saline with Tween-80”, the survivor count is reported as 1 of 6.

As for `NC1CCCCC1N.O=S(=O)([O-])CCCN1CCN(CCO)CC1.O=S(=O)([O-])CCCN1CCN(CCO)CC1.[Pt+4]`, the T/C (T/C endpoint: median survival time, dose: 3.12 mg/kg/injection, schedule: Q04DX003 (ip), vehicle: saline, evaluated on day 30) was 131 % of control and the T/C (T/C endpoint: median survival time, dose: 3.12 mg/kg/injection, schedule: Q04DX003 (ip), vehicle: saline, evaluated on day 40) was 135 % of control. Moreover, the survivor count is, setting by setting: (T/C endpoint: median survival time, dose: 100.0 mg/kg/injection, schedule: Q04DX003 (ip), vehicle: saline) 4 of 6; (T/C endpoint: median survival time, dose: 200.0 mg/kg/injection, schedule: Q04DX003 (ip), vehicle: saline) 0 of 6.

As for `CC(C)OP(=O)(OC(C)C)C1=C(P(=O)(OC(C)C)OC(C)C)C(F)(F)C(F)(F)C1(F)F`, the survivor count runs as follows: (T/C endpoint: mean survival time, dose: 75.0 mg/kg/injection, schedule: Q01DX001 (ip), vehicle: other) 5 of 6; (T/C endpoint: mean survival time, dose: 150.0 mg/kg/injection, schedule: Q01DX001 (ip), vehicle: other) 1 of 6; (T/C endpoint: mean survival time, dose: 300.0 mg/kg/injection, schedule: Q01DX001 (ip), vehicle: other) 0 of 6.

`Cc1cc(O)c2cc3c(O)c(O)ccc3cc2c1`: the survivor count was 0 of 6 (T/C endpoint: mean survival time, dose: 100.0 mg/kg/injection, schedule: Q01DX001 (ip), vehicle: saline); 0 of 6 (T/C endpoint: mean survival time, dose: 200.0 mg/kg/injection, schedule: Q01DX001 (ip), vehicle: saline); 0 of 6 (T/C endpoint: mean survival time, dose: 400.0 mg/kg/injection, schedule: Q01DX001 (ip), vehicle: saline).

In the case of `CCN(CC)CCn1[nH]c2c3ccc(=O)cc3sc3c(NCCN)ccc1c32`, the T/C (T/C endpoint: median survival time, dose: 0.75 mg/kg/injection, schedule: Q01DX009 (ip), vehicle: water) was 144 % of control and the T/C (T/C endpoint: median survival time, dose: 1.56 mg/kg/injection, schedule: Q01DX005 (ip), vehicle: water) is 137 % of control. In addition, the survivor count is 6 of 6 (T/C endpoint: median survival time, dose: 24.0 mg/kg/injection, schedule: Q01DX005 (ip), vehicle: water); 5 of 6 and 6 of 6 (T/C endpoint: median survival time, dose: 25.0 mg/kg/injection, schedule: Q01DX005 (ip), vehicle: water).

Take `COc1cc(C(=O)C=C(C(F)(F)F)C(F)(F)F)cc(OC)c1OC`: the survivor count under setting [3] was 2 of 6.

Turning to `CNC(=S)NNc1ccc(Cl)cc1`, where the note is “T/C endpoint: mean survival time, dose: 200.0 mg/kg/injection, schedule: Q01DX009 (ip), vehicle: other”, the survivor count is listed as 0 of 6.

Take `CC(=O)Oc1ccc(C(=O)O)cc1`: the survivor count under setting [1] was 0 of 3.

In the case of `Cn1ncc2c(N)nc(-c3ccccn3)nc21`, the survivor count (T/C endpoint: mean survival time, dose: 200.0 mg/kg/injection, schedule: Q01DX005 (ip), vehicle: water) is given as 2 of 6.

For `N[N+]#COC1C(C(=O)NN)C1C(=O)NN` (stereo not drawn), the survivor count (T/C endpoint: median survival time, dose: 200.0 mg/kg/injection, schedule: Q04DX002 (ip), vehicle: saline with Tween-80) is 3 of 3.

Regarding `O=C(CCl)NC12Nc3ccccc3C1(Cc1ccccc1)CN(C1CCCCC1)C2=O` (stereo not drawn), the survivor count is on record as 3 of 3 (T/C endpoint: mean survival time, dose: 100.0 mg/kg/injection, schedule: Q04DX002 (ip), vehicle: saline with Tween-80) and 6 of 6 (T/C endpoint: mean survival time, dose: 400.0 mg/kg/injection, schedule: Q01DX001 (ip), vehicle: saline with Tween-80).

Consider `COc1ccc(/C=C/c2cc[n+](C)cc2)cc1`, for which the survivor count (T/C endpoint: mean survival time, dose: 50.0 mg/kg/injection, schedule: Q01DX009 (ip), vehicle: saline) is listed as 2 of 6; the survivor count under setting [4] is 5 of 6; the survivor count under setting [2] is on record as 0 of 6; the survivor count under setting [3] is 0 of 6.

As to `[I][Pt+2][I].[NH-]CC1CCCC[N-]1` (stereo not drawn), the survivor count by setting is: (T/C endpoint: mean survival time, dose: 100.0 mg/kg/injection, schedule: Q04DX003 (ip), vehicle: distilled water + Tween-80) 3 of 6; (T/C endpoint: mean survival time, dose: 200.0 mg/kg/injection, schedule: Q04DX003 (ip), vehicle: distilled water + Tween-80) 0 of 6.

On to `O=S(=O)(c1cccc(N=C=S)c1)c1cccc(N=C=S)c1`, for which the survivor count (T/C endpoint: median survival time, dose: 50.0 mg/kg/injection, schedule: Q01DX009 (ip), vehicle: Klucel (hydroxypropylcellulose) (HPC)) is 2 of 6 and the survivor count (T/C endpoint: median survival time, dose: 100.0 mg/kg/injection, schedule: Q01DX009 (ip), vehicle: Klucel (hydroxypropylcellulose) (HPC)) is 0 of 6.

Consider `COC1C(C)OC(OC2CC(C)(O)Cc3cc4c(c(O)c32)C(=O)c2c(O)cc3c(c2C4=O)OC2OC3(C)C(O)C(N(C)C)C2O)C(OC)C1(C)OC` (stereo not drawn), for which the T/C by setting is: (T/C endpoint: mean survival time, dose: 1.25 mg/kg/injection, schedule: Q01DX009 (ip), vehicle: other) 115 (2×), 122, 127 % of control; (T/C endpoint: mean survival time, dose: 2.5 mg/kg/injection, schedule: Q01DX009 (ip), vehicle: other) 117 (2×), 122, 127 % of control; (T/C endpoint: mean survival time, dose: 5.0 mg/kg/injection, schedule: Q01DX009 (ip), vehicle: other) 92, 113 (2×), 125 % of control; under setting [5], 91 % of control [4 of 6 alive]. The survivor count under setting [5] is 4 of 6 and 5 of 6.

Regarding `COC(=O)c1ccc(NC(=O)Cc2c(O)c3c(c(C)c2OC)COC3=O)cc1N`, the T/C is 128 % of control (T/C endpoint: mean survival time, dose: 400.0 mg/kg/injection, schedule: Q04DX002 (ip), vehicle: saline) and 143 % of control (T/C endpoint: median survival time, dose: 400.0 mg/kg/injection, schedule: Q04DX002 (ip), vehicle: saline).

Regarding `O=c1[nH]cnc2c1cnn2CN1CCOCC1`, the survivor count (T/C endpoint: median survival time, dose: 400.0 mg/kg/injection, schedule: Q01DX009 (ip), vehicle: Klucel (hydroxypropylcellulose) (HPC)) is listed as 2 of 6.

In the case of `NC(=S)N/N=C/c1c(O)ccc2ccccc12`, the survivor count is 3 of 6 under setting [4]; 0 of 6 under setting [2]; 2 of 6 under setting [3]; 0 of 6 (T/C endpoint: mean survival time, dose: 800.0 mg/kg/injection, schedule: Q04DX003 (ip), vehicle: saline with Tween-80).

With `CCc1nc(N)nc(N)c1-c1ccc(Cl)c([N+](=O)[O-])c1`, the T/C runs as follows: (T/C endpoint: mean survival time, dose: 12.5 mg/kg/injection, schedule: Q01DX009 (ip), vehicle: saline with Tween-80) 125 % of control; (T/C endpoint: mean survival time, dose: 25.0 mg/kg/injection, schedule: Q01DX009 (ip), vehicle: saline with Tween-80) 130 % of control; (T/C endpoint: mean survival time, dose: 50.0 mg/kg/injection, schedule: Q01DX009 (ip), vehicle: saline with Tween-80) 130 % of control.

For `O=C1c2ccccc2C(=O)N1CC(O)COc1ccccc1[N+](=O)[O-]` (stereo not drawn), the survivor count (T/C endpoint: mean survival time, dose: 400.0 mg/kg/injection, schedule: Q04DX002 (ip), vehicle: saline with Tween-80) is reported as 3 of 3.
